# In PubChem BioAssay AID330 (DTP/NCI, 2004):
# The list shows only some results of the screen, not a fair sample: it is rich in T/C values a quarter to a half above the control, in often repeated tests (any T/C) and in doses without a T/C. Further doses and runs are listed elsewhere. T/C: endpoint of the treated group in % of that of the vehicle group. Some entries give survivors of the animals treated and no T/C: the source holds a T/C of zero for them, seemingly a mark for toxic or unscored doses. Some doses without a T/C left all or most animals alive at the check, yet need not have been tolerated: survival well below the control is almost never listed, so the zero probably covers shortened survival too. Counts of survivors are from the toxicity check (mostly the fifth day) where no day follows; animals may have died later. Schedules are NCI's codes, read here as Q, the interval in days (D) or hours (H), X, the number of doses. For survival time, this PubChem deposit counts one and a half times the control or more as active, and values a quarter to a half above the control carry no call in these data; other NCI protocols may use other cut-offs. Some T/C values are followed by the survivors on the day toxicity was checked, most often the fifth; where none is given, no animal had died by that day.
# Test system: P388 leukemia ip, CD2F1 mice, survival T/C
# Test: NCI In Vivo Anticancer Drug Screen. Data for tumor model P388 Leukemia (intraperitoneal) in CD2F1 (CDF1) mice
# Details: T/C endpoint: median survival time, higher T/C = longer survival
# [1] = dose: 50.0 mg/kg/injection, schedule: Q01DX009 (ip), vehicle: saline with Tween-80
# [2] = dose: 50.0 mg/kg/injection, schedule: Q04DX003 (ip), vehicle: saline with Tween-80
# [3] = dose: 100.0 mg/kg/injection, schedule: Q01DX009 (ip), vehicle: saline with Tween-80
# [4] = dose: 100.0 mg/kg/injection, schedule: Q04DX003 (ip), vehicle: saline with Tween-80
# [5] = dose: 200.0 mg/kg/injection, schedule: Q01DX009 (ip), vehicle: saline with Tween-80
# [6] = dose: 200.0 mg/kg/injection, schedule: Q01DX009 (ip), vehicle: Klucel (hydroxypropylcellulose) (HPC)
# [7] = dose: 25.0 mg/kg/injection, schedule: Q01DX009 (ip), vehicle: saline
smiles,measurement,setting,value
CC(=N/NC(=S)NCCN1CCCCC1)/C(C)=N\NC(=S)NCCN1CCCCC1,survivor count,[1],0 of 6
same,survivor count,[2],3 of 6
same,survivor count,[3],0 of 6
same,survivor count,[4],0 of 6
same,survivor count,[5],0 of 6
CC1(C)CC(=O)C=C(NC2CCCCC2)C1,survivor count,[5],6 of 6
O=C1c2c(O)ccc(O)c2C(=O)c2c(NCCCO)ccc(NCCCO)c21,survivor count,"dose: 160.0 mg/kg/injection, schedule: Q01DX009 (ip), vehicle: acid diluted with saline",6 of 6
c1ccc([As+](c2ccccc2)(c2ccccc2)c2ccccc2)cc1,T/C,"dose: 1.25 mg/kg/injection, schedule: Q04DX003 (ip), vehicle: saline",131 % of control
same,T/C,"dose: 2.5 mg/kg/injection, schedule: Q04DX003 (ip), vehicle: saline",136 % of control
same,T/C,"dose: 5.0 mg/kg/injection, schedule: Q04DX003 (ip), vehicle: saline",140 % of control
FC(F)(F)c1nc2nc(Cl)c(Cl)nc2[nH]1,T/C,"dose: 100.0 mg/kg/injection, schedule: Q04DX003 (ip), vehicle: other",127 % of control [5 of 6 alive]
CC(Nc1ccc(Br)cc1[N+](=O)[O-])C(=O)O (configuration not stated),T/C,[3],136 % of control
NCCCNCCCNc1nc2nc(N)nc(N)c2nc1-c1ccc([N+](=O)[O-])cc1,survivor count,"dose: 100.0 mg/kg/injection, schedule: Q01DX005 (ip), vehicle: saline with Tween-80",0 of 6
same,survivor count,"dose: 200.0 mg/kg/injection, schedule: Q01DX005 (ip), vehicle: saline with Tween-80",0 of 6
Clc1nc2nc[nH]c2nc1Cl,survivor count,[2],6 of 6
same,survivor count,[4],6 of 6
NS(=O)(=O)c1ccc(Nc2c3ccccc3nc3cc(Cl)ccc23)cc1,survivor count,"dose: 50.0 mg/kg/injection, schedule: Q01DX009 (ip), vehicle: Klucel (hydroxypropylcellulose) (HPC)",6 of 6
same,survivor count,[6],5 of 6
CCCCCCC(Cn1ccnc1)c1ccc(Br)cc1 (configuration not stated),survivor count,"dose: 400.0 mg/kg/injection, schedule: Q04DX003 (ip), vehicle: saline with Tween-80",0 of 6
Cc1nn(C(=O)c2ccncc2)c(C)c1N=Nc1ccc([N+](=O)[O-])cc1,survivor count,[6],3 of 6
CN(C)c1cc(O)c(-n2c3cc(=O)c(N(C)C)cc-3nc3ccccc32)cc1O,survivor count,[1],2 of 6
same,survivor count,"dose: 200.0 mg/kg/injection, schedule: Q01DX009 (ip), vehicle: saline",0 of 6
CCN(CC)c1c(C)nnc2c3c(-c4ccccc4)c(-c4ccccc4)nnc3nn12,survivor count,[4],6 of 6
Cc1cc(=O)oc2cc(OC(=O)Nc3ccc(Cl)c(Cl)c3)ccc12,survivor count,"dose: 6.25 mg/kg/injection, schedule: Q01DX009 (ip), vehicle: saline",6 of 6
same,survivor count,[7],6 of 6
same,survivor count,[1],6 of 6
same,survivor count,[3],6 of 6
same,survivor count,[5],5 of 6
CC(C)(C)C1=CC2(c3ccccn3)C(Cl)C(=O)N2NC(c2ccccn2)=N1 (configuration not stated),survivor count,"dose: 400.0 mg/kg/injection, schedule: Q01DX009 (ip), vehicle: other",3 of 6
O=C1c2ccccc2CCC1Br (configuration not stated),survivor count,"dose: 3.12 mg/kg/injection, schedule: Q01DX009 (ip), vehicle: DMSO",6 of 6
same,survivor count,"dose: 25.0 mg/kg/injection, schedule: Q01DX009 (ip), vehicle: DMSO",4 of 5
COC1=C(OC)C(=O)C=CC1=O,survivor count,"dose: 12.5 mg/kg/injection, schedule: Q01DX009 (ip), vehicle: saline",3 of 6
same,survivor count,[7],0 of 6
same,survivor count,"dose: 50.0 mg/kg/injection, schedule: Q01DX009 (ip), vehicle: saline",0 of 6
CCCCCCC1N=C(N)N=C(N)N1c1ccc(Cl)cc1 (configuration not stated),survivor count,"dose: 50.0 mg/kg/injection, schedule: Q01DX005 (ip), vehicle: Klucel (hydroxypropylcellulose) (HPC)",3 of 5
same,survivor count,"dose: 100.0 mg/kg/injection, schedule: Q01DX005 (ip), vehicle: Klucel (hydroxypropylcellulose) (HPC)",4 of 5
same,survivor count,"dose: 200.0 mg/kg/injection, schedule: Q01DX005 (ip), vehicle: Klucel (hydroxypropylcellulose) (HPC)",0 of 5
